Laboratory results reported in paper PMC9726878.
Results are given in words; binding and its absence hold for the method and conditions named. In cells and extracts the contact can be indirect. Some binding calls cover weakened binding; strength is not graded here. Where a sequence is shown, tags or fusion partners need not be part of it.

Molecular target: Myc-HIF1α, Q16665
Test: co-IP; Flag-RBCK1 and Myc-HIF1α (full length or deletion mutants) co-transfected in HEK293T; lysate incubated with the required antibody or control IgG and protein A/G agarose at 4 °C overnight; blots with anti-Myc and anti-Flag; for the deletion mutants MG132 for 6 h before lysis
Conditions: remark: other sources report otherwise

binding: binds
B1: Flag-RBCK1, Q9BYM8-1 1-510 (protein)
chain: MDEKTKKAEEMALSLTRAVAGGDEQVAMKCAIWLAEQRVPLSVQLKPEVSPTQDIRLWVSVEDAQMHTVTIWLTVRPDMTVASLKDMVFLDYGFPPVLQQWVIGQRLARDQETLHSHGVRQNGDSAYLYLLSARNTSLNPQELQRERQLRMLEDLGFKDLTLQPRGPLEPGPPKPGVPQEPGRGQPDAVPEPPPVGWQCPGCTFINKPTRPGCEMCCRARPEAYQVPASYQPDEEERARLAGEEEALRQYQQRKQQQQEGNYLQHVQLDQRSLVLNTEPAECPVCYSVLAPGEAVVLRECLHTFCRECLQGTIRNSQEAEVSCPFIDNTYSCSGKLLEREIKALLTPEDYQRFLDLGISIAENRSAFSYHCKTPDCKGWCFFEDDVNEFTCPVCFHVNCLLCKAIHEQMNCKEYQEDLALRAQNDVAARQTTEMLKVMLQQGEAMRCPQCQIVVQKKDGCDWIRCTVCHTEICWVTKGPRWGPGGPGDTSGGCRCRVNGIPCHPSCQNCH
